US10835536B2, “Therapeutic agent for FGFR inhibitor-resistant cancer” (TAIHO PHARMACEUTICAL CO., LTD., priority 2013, dated 2020)

System: AZD4547 resistant cells
Test: Cell growth inhibition, AZD4547 resistant OCUM-2MD3 cells
Type: cell-based, human
Conditions: AZD4547 resistant clones, in words

C=CC(=O)N1CC[C@H](n2nc(C#Cc3cc(OC)cc(OC)c3)c3c(N)ncnc32)C1 [Ex. Compound 2, (S)-1-(3-(4-amino-3-((3,5-dimethoxyphenyl)ethynyl)-1H-pyrazolo[3,4-d]pyrimidin-1-yl)pyrrolidin-1-yl)prop-2-en-1-one]
growth inhibition compared with wild type: inhibited to the same extent as in the wild type
